These results are taken from PMC7819943, “Rice protein-binding microarrays: a tool to detect cis-acting elements near promoter regions in rice”.

The chains behind the UniProt entries cited, without tags or fusion partners.
UniProt Q0JBA9, entry or part of it: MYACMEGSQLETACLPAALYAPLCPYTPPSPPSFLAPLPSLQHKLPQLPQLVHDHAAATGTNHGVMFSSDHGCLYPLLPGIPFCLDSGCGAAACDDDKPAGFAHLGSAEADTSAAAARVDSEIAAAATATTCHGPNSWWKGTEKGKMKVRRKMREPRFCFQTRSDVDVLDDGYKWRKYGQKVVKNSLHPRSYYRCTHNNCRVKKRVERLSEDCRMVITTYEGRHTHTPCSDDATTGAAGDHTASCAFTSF

The other results are listed elsewhere or left out.

This assay concerns the target OsWRKY34 (Oryza sativa, UniProt Q0JBA9 1-250). Kind of assay: protein-binding microarray (RPBM); PBS, 2% BSA, 51.3 ng/ul salmon testes DNA, 50 uM zinc acetate, 200 nM TF, 25 C, 1 h; high values mean tight binding. Particulars: protein: recombinant; tags: N-terminal polyhistidine and DsRed monomer fusion (pET32a); label: CyDye5-dUTP incorporated in the synthesized complementary strand; 3' TTTTT single-stranded linker to array surface; dsDNA, one strand shown. A digest of the protocol: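 Binding signal is reported as fluorescence intensity per feature (arbitrary units) from an Axon 4000B scanner. Incubation used 200 nM of each Ni–NTA-purified, N-terminally polyhistidine- and DsRed-fused transcription factor from E. coli BL21-CodonPlus on a double-stranded custom Agilent array for 1 h at 25 °C, with 50 µM zinc acetate in the buffer, followed by washing.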
Consider “CAGGCCACACACGTCGATGACTCCACCAGCCGTTATTCTTCGGAGTCACCTAGTGCAG”, for which the binding signal was 9560 fluorescence intensity (a.u.). On to “CAATTATCCTCTGTGCTGTTTGACATTTTCTTGGTTAGTGCGGAGTCACCTAGTGCAG”, for which the binding signal is 12000 fluorescence intensity (a.u.). The result for “GCCCCACACCCCGACGAAGCAAAGCATCCCACCAAACAAACGGAGTCACCTAGTGCAG” reads 8190 fluorescence intensity (a.u.). For “GCTTCACCTTCGGCTTCGACTTCGGCTTCGTTTCCTCTTCCGGAGTCACCTAGTGCAG” the value was 18600 fluorescence intensity (a.u.). The result for “TCTCGATCTCCCCGCCTATTTATGCTCGTCTCGTCACCCGCGGAGTCACCTAGTGCAG” reads 8140 fluorescence intensity (a.u.). For the sequence “GTCGATGTGTGATGGTGGAATTTTTTCTTCTTTCCTAGCTCGGAGTCACCTAGTGCAG”, the binding signal was 8360 fluorescence intensity (a.u.). In the case of “ACCCTAGCTACTACCTTAGCTCGCATTGATCCATCCATCCCGGAGTCACCTAGTGCAG”, the binding signal was 10400 fluorescence intensity (a.u.). Turning to “AAACACACTGATCTCGATCATCCTCATTGCAAATCACATTCGGAGTCACCTAGTGCAG”, the binding signal was 8200 fluorescence intensity (a.u.). Consider “AACCCGTAAAACCCACTTATCCACTCTTGCACAATCACATCGGAGTCACCTAGTGCAG”, for which the binding signal was 8240 fluorescence intensity (a.u.).

For the sequence “AGGGATTTTGAGTTTTTGCTTGCACGATTTGACTACTCGTCGGAGTCACCTAGTGCAG”, the binding signal was 8160 fluorescence intensity (a.u.). For “CGTCGTCGCTGCCGTGAGGGGTGGCCGGGCGGCGGGGCAACGGAGTCACCTAGTGCAG” the value was 8950 fluorescence intensity (a.u.). The result for “TCCCTAAATGTTTGACACCGTTGACCTTTTTAAAACATTTCGGAGTCACCTAGTGCAG” reads 17800 fluorescence intensity (a.u.). “CGCTTGTACTGATTTGGTTTTGGTTGCTGGGTTGGATGGTCGGAGTCACCTAGTGCAG”: the binding signal is 13300 fluorescence intensity (a.u.). The result for “CTCAGATTAAAGGGGTGGGTACTTCGGGAATGAAGAATAGCGGAGTCACCTAGTGCAG” reads 12100 fluorescence intensity (a.u.).

With “TCTCTCTCTCCAATTTGCTCCAATCTTTAATTTCCTGCCTCGGAGTCACCTAGTGCAG”, the binding signal is 8480 fluorescence intensity (a.u.). Take “GCGGTACCGTGGGTGAAAGGGTACTTCTGTACTTTCGCGTCGGAGTCACCTAGTGCAG”: the binding signal was 8670 fluorescence intensity (a.u.).

For the sequence “CTATCCTGTGCATTCGTGCCTCCTTCAGGCCTTGTTTTTCCGGAGTCACCTAGTGCAG”, the binding signal is 11800 fluorescence intensity (a.u.). As to “GTTGTTATGTGTGTGGGTGTGTGAGGGAGTTTGCACTGCACGGAGTCACCTAGTGCAG”, the binding signal was 8980 fluorescence intensity (a.u.). For “GATTCCCGCGAAACCAGTTGGTTTCCTTTCCCCGCGGATTCGGAGTCACCTAGTGCAG” the value was 12600 fluorescence intensity (a.u.); for “CCGGTGTTCGTTATCGTCGTCTCCGTTCGTCCTCGTCGACCGGAGTCACCTAGTGCAG”, 8310 fluorescence intensity (a.u.); for “TACTCTCTCTCATGATATCTGTCTGTCGCACACGGACACGCGGAGTCACCTAGTGCAG”, 8320 fluorescence intensity (a.u.). The result for “CGTAGAAGGGATTGGGTGAAATTACATGGGCATATAGGGACGGAGTCACCTAGTGCAG” reads 8220 fluorescence intensity (a.u.); that for “GTTCCTTCCGTGTTTTCATACTCAAAGTCTCAAACCCAGCCGGAGTCACCTAGTGCAG”, 9020 fluorescence intensity (a.u.). For “AGACTGACTTCCGTCGATTTCGAGGGTAACTTTTATTTCCCGGAGTCACCTAGTGCAG” the value was 8280 fluorescence intensity (a.u.); for “CGCCACAACGGGTTTAGCTCTGTTCCGCTATTCGGCCCATCGGAGTCACCTAGTGCAG”, 9640 fluorescence intensity (a.u.). As to “ATAAAATTTCTGATTAATTACTCCACTGTTTTACTTCTCTCGGAGTCACCTAGTGCAG”, the binding signal is 8090 fluorescence intensity (a.u.). The result for “TACAAATACATTGCTTTTTGGGTGGGTTGTTTTTTCAGCACGGAGTCACCTAGTGCAG” reads 15300 fluorescence intensity (a.u.); that for “AAGTTGATTTAAGTTTTTTTTACTATAGTTTATTTTCCAGCGGAGTCACCTAGTGCAG”, 9220 fluorescence intensity (a.u.). The result for “AGACCCTGCCTACAACCTCCGGGCAAATGTGCAGCAGCAACGGAGTCACCTAGTGCAG” reads 8760 fluorescence intensity (a.u.); that for “TTCGGTTTCGTGGCGGTTGCGTTTCCTCCTCTCTCTTTTCCGGAGTCACCTAGTGCAG”, 8800 fluorescence intensity (a.u.); that for “GACCCCGCTCACCCAAAGCTTTCCCTGCTGTCGTTGCTCTCGGAGTCACCTAGTGCAG”, 10300 fluorescence intensity (a.u.). For “CCAACCAACCAACCATCCTTTTGCTTTTGCATCTCACACTCGGAGTCACCTAGTGCAG” the value was 10500 fluorescence intensity (a.u.); for “TTAATTATTTCTTGGTATTTGGGTTAAGGGTGGTTGTGCCCGGAGTCACCTAGTGCAG”, 12600 fluorescence intensity (a.u.); for “TACAACCTTATTTTTTTCATTTATGCTTATACTTGTACTTCGGAGTCACCTAGTGCAG”, 10400 fluorescence intensity (a.u.).

As to “TTACTCGCCACCATAGTTTCTATAAGCACACTTTCATAGTCGGAGTCACCTAGTGCAG”, the binding signal was 8260 fluorescence intensity (a.u.). The result for “CAAAAATCTGTCTGTAACATGTTATTTCGGTAAAATGGAGCGGAGTCACCTAGTGCAG” reads 8640 fluorescence intensity (a.u.); that for “CCTCGTGCTTTCCTGCCTTGCCGCTGCGTCGCTCTCGCTCCGGAGTCACCTAGTGCAG”, 11600 fluorescence intensity (a.u.). For “TCGCTCGGTTAGACCGTCCACTTCCACACTCACCAGTCACCGGAGTCACCTAGTGCAG” the value was 8710 fluorescence intensity (a.u.). For “TTTTGTGCTGTTACTAGCTCCTTGTTCTTGCCCTTTCAGCCGGAGTCACCTAGTGCAG” the value was 9340 fluorescence intensity (a.u.); for “CGATCCCTGCTCTGTTTTCGAACTCGATCTCTGCCTCCGACGGAGTCACCTAGTGCAG”, 8630 fluorescence intensity (a.u.). In the case of “AAAGTCGTCATCACCCATAGAGCATCATAGCAATAATCTACGGAGTCACCTAGTGCAG”, the binding signal is 8130 fluorescence intensity (a.u.).

With “AAAACACAAATTAACCCGGCATAAGCTCTCCAGCCATCCACGGAGTCACCTAGTGCAG”, the binding signal is 8680 fluorescence intensity (a.u.).
